Where two headings read alike, the source gives them in different places. No constants are given. Whether binding was seen depends on the method and setting. In cells and extracts the contact can be indirect. Some entries that bind do so weakly or less than the wild type. Sequences can lack the tags named with a protein.
Legend:
Experiment in all cases: co-IP
[1] = target: T1, Rpn5-yEGFP (S. cerevisiae) (UniProt Q12250)
T1 sequence: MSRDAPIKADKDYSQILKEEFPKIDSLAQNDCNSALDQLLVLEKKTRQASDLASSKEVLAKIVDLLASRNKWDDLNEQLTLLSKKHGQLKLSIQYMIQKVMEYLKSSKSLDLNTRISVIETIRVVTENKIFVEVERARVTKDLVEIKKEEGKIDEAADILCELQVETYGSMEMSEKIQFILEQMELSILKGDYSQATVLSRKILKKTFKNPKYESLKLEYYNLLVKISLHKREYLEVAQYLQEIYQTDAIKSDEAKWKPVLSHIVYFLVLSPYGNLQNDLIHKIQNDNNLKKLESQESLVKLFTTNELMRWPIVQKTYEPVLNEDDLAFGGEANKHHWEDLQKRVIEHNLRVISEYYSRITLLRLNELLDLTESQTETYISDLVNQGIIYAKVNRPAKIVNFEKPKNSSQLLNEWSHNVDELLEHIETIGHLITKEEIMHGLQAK

Rpn2-GFP (S. cerevisiae) [2] = target: T2, Rpn2-GFP (S. cerevisiae) (UniProt P32565)
T2 sequence: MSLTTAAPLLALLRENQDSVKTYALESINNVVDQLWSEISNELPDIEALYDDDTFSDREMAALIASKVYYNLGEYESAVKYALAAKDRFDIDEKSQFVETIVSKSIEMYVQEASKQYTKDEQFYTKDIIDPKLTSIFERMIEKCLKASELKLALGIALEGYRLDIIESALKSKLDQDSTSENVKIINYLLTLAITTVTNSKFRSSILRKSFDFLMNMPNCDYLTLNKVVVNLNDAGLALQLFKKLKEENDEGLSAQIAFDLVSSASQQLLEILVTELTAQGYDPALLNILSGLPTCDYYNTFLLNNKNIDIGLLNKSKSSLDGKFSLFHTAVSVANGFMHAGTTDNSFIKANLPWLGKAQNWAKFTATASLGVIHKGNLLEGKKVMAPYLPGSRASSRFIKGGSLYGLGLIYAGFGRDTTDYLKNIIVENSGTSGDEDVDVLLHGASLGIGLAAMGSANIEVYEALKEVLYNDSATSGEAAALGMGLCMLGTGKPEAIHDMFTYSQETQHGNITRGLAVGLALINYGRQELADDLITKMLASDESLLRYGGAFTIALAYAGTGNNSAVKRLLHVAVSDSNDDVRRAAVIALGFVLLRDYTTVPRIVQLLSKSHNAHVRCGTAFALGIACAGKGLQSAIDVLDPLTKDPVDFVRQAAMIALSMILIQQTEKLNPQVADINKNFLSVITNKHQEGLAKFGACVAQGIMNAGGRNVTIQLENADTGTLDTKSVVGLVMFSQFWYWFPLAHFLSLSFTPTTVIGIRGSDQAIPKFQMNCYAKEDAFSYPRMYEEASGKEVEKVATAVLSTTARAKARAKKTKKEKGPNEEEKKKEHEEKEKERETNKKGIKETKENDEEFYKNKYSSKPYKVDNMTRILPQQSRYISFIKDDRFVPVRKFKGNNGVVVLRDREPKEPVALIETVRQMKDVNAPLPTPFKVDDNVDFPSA

[3] = target: T1, Rpn5-yEGFP (S. cerevisiae); remark: listed apart in the source
Rpn2-GFP (S. cerevisiae) [4] = target: T2, Rpn2-GFP (S. cerevisiae); remark: listed apart in the source

Measured: binding

B1: HA-Vps27 (protein, UniProt P40343 1-622)
chain: MSVSTPSELDALIEQATSESIPNGDLDLPIALEISDVLRSRRVNPKDSMRCIKKRILNTADNPNTQLSSWKLTNICVKNGGTPFIKEICSREFMDTMEHVILREDSNEELSELVKTILYELYVAFKNDSQLNYVAKVYDKLISRGIKFPEKLTLSNSPTAMFDSKTPADWIDSDACMICSKKFSLLNRKHHCRSCGGVFCQEHSSNSIPLPDLGIYEPVRVCDSCFEDYDLKRHDDSKKSKKHRHKRKKDRDYSTPEDEEELIRKAIELSLKESRNSASSEPIVPVVESKNEVKRQEIEEEEDPDLKAAIQESLREAEEAKLRSERQKASRQMQPQQPSPQPQPIHSVDLSDEEKDSIYMFASLVEKMKSRPLNEILEDSKLQNLAQRVFASKARLNYALNDKAQKYNTLIEMNGKISEIMNIYDRLLEQQLQSINLSQQYTLPQVPSDPYNYLTENVQNPAESYQTPPLQQLSSHQYKPQQDVSRQQSVKANSSPTTNIDHLKTIDVTPHAQQKPQSHVELAPSDPPYPKEEAEDEGTQAVQDEESSTQESRERPYPVETENGETSINKRPQGITRYDFPTVPARKFVQPESTVPLPASSSEIPIKEERPPSPQEELLIEL
binds: [1] | Rpn2-GFP (S. cerevisiae) [2] | [3] | Rpn2-GFP (S. cerevisiae) [4]
